Measured values reported in patent publication WO2018121578A1.
Results are given in words; binding and its absence hold for the method and conditions named. Some results given as binding are weak or reduced against the parent protein; the word gives no strength.

By UniProt entry, the sequences of proteins in these tests, tags left out. Where a name states a change or a piece, a line headed by the entry shows the natural chain unless it says otherwise. Chains listed by the source or under a name are the forms on record and can include a tag or linker.
CD147 protein (P35613, form named): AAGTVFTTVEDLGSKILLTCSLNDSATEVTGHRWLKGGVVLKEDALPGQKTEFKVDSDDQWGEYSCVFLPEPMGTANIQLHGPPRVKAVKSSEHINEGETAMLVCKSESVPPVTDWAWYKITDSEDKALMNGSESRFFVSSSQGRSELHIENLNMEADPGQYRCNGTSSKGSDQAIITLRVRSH

Experiments:
[1] = target: CD147 protein (UniProt P35613); experiment: ELISA, relative binding activity after 6 months at 2-8 C, preset standard 65%-150%
[2] = target: CD147 protein (UniProt P35613); experiment: ELISA, relative binding activity (EC50 of sample against reference), preset standard 65%-150%
[3] = target: CD147 protein (UniProt P35613); experiment: ELISA, relative binding activity after 40-fold dilution in 0.9% NaCl, up to 8 h at 25 C, preset standard 65%-150%

Measured: binding

B1: HcHAb18 monoclonal antibody (antibody, human IgG1, kappa, V domains shown)
VH: EVKLEESGGGLVQPGGSMKLSCVASGFTFSDAWMDWVRQSPEKGLEWVAEIRSKANNHAPYYTESVKGRFTISRDDSKSIIYLQMNNLRAEDTGIYYCTRDSTATHWGQGTLVTVSA
VL: SIVMTQTPTFLVVSAGDRVTITCKASQSVINDVAWYQQKPGQSPKLLIFYASNRNTGVPDRFTGSGYGTDFTFTISTVQAEDLAVYFCQQDYSPPFTFGSGTKLEIKR
binds: [1] | [2] | [3]
